Assay results as given in PubChem BioAssay AID624297 (National Center for Advancing Translational Sciences (NCATS), 2012).
In all, about 340,000 compounds went through this assay and about 6,200 (1.8%) were called active. Inconclusive means that the source gave no clear call. Such entries were picked first, then a sample of the others. The call rests on the fitted dose curve; in most records, active means well fitted activation curve with a large enough effect; inconclusive means small, poorly fitted or top-dose-only effect; inactive means no such curve, though single readings can be large or run the other way. Where the call is inconclusive, the potency comes from a doubtful curve fit.

Experiment: A quantitative high throughput screen for small molecules that induce DNA re-replication in SW480 colon adenocarcinoma cells. Further: nearly all actives have a fitted effect of over 55% in size. On re-replication activation: % of control where 0% means no effect.
Conditions: Hoechst DNA content imaging, 48 h; re-replication activation: at 46.1 µM (top of the series)
How it was run: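 Per well, 250 cells were exposed to pinned compound for 48 hr. Nuclear DNA was visualised with Hoechst (40 min, 37 C) and total object intensity recorded by fluorescence scanning.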
Potency means the concentration at half of the fitted maximal effect.

Row | SMILES | Potency | re-replication activation
1 | CC(C(=O)OCC(=O)NC1CCCCC1)N1C(=O)c2ccccc2C1=O (centres undefined) | inconclusive: 6.51 µM [activator, partial curve, poor fit] | 
2 | Cc1ccc(C)c(CN2CCC(n3nccc3NC(=O)CCCc3ccccc3)CC2)c1 | inconclusive: 18.4 µM [activator, single point] | 
3 | NC(=O)N/N=C\c1cc(Br)ccc1O |  | inactive: 6.71%
4 | COC(=O)C1C(C(C)C)N(c2ccccc2)OC1(C)O (centres undefined) | inconclusive: 23.1 µM [activator, single point] | 
5 | Cc1ccc(N(C(=O)c2csnn2)C(C(=O)NC2CCCC2)c2cccnc2)c(C)c1 (centres undefined) | inconclusive: 0.1 µM [activator, full curve, poor fit] | 
6 | CCc1cccc2sc(N3CCN(C(=O)c4ccc([N+](=O)[O-])o4)CC3)nc12 | inconclusive: 2.91 µM [activator, partial curve, poor fit] | 
7 | O=C(Cn1c(-c2ccccc2)c[n+]2ccsc12)c1ccc([N+](=O)[O-])cc1 |  | inactive: 4.25%
8 | Cn1nc(-c2ccccc2)cc1NS(=O)(=O)c1ccc(C#N)cc1 | inconclusive: 29.1 µM [activator, partial curve, poor fit] | 
9 | COc1cc(/C=C(\C#N)C(N)=O)ccc1OS(=O)(=O)c1ccc(C)cc1 | inconclusive: 29.1 µM [activator, single point] | 
10 | CCc1noc(C)c1C(=O)Nc1nc(-c2cc(OC)ccc2OC)cs1 |  | inactive: 8.24%
11 | COc1cc(S(=O)(=O)NCCOC23CC4CC(CC(C4)C2)C3)c(OC)cc1Cl |  | inactive: -7.89%
12 | Cc1cccc(-n2c(SCC(=O)O)nc3sc4c(c3c2=O)CCC4)c1 | inconclusive: 23.1 µM [activator, single point] | 
13 | C=CCNC(=O)c1onc(CSc2cc(C)cc(C)c2)c1C(=O)O | inconclusive: 1.84 µM [activator, partial curve, poor fit] | 
14 | Cc1c(CN2CCc3c([nH]c4ccccc34)C2C2CCCCC2)cnn1C (centres undefined) |  | inactive: 5.95%
15 | COc1ccc(-n2nc(C(=O)NCC(=O)N3CCN(c4ccccc4)CC3)c3ccccc3c2=O)c(OC)c1 |  | inactive: 0.34%
16 | COc1cc(C2C(C#N)=C(N)N(Nc3ccccc3)C3=C2C(=O)CC(C)(C)C3)ccc1OCc1ccccc1 (centres undefined) | active: 25.9 µM | 
17 | CCn1c2ccccc2c2cc(NC(=O)c3cccc([N+](=O)[O-])c3)ccc21 | inconclusive: 6.51 µM [activator, full curve, poor fit] | 
18 | O=C(CSc1ccsc1[N+](=O)[O-])N1CCCCCC1 | inconclusive: 4.11 µM [activator, single point] | 
19 | CCOc1ccccc1N1CCN(c2ncnc3scc(-c4ccc(OC)cc4)c23)CC1 | inconclusive: 29.1 µM [activator, single point] | 
20 | O=C(Nc1ccc(-c2noc(COc3ccccc3Cl)n2)cc1)c1ccco1 |  | inactive: -3.98%
21 | CCc1nnc(NC(=O)c2nc(S(=O)(=O)Cc3ccc(C)cc3)ncc2Cl)s1 |  | inactive: 93.4%
22 | Nc1ccccc1SSc1ccccc1N |  | inactive: 5.88%

Row | SMILES | Potency | re-replication activation
23 | Cc1ccc(C(=O)NC(C#N)=C(Cl)Cl)cc1 | inconclusive: 4.11 µM [activator, full curve, poor fit] | 
24 | COc1ccccc1C1CCCN1Cc1nc(-c2cc3c(cc2Cl)OCO3)oc1C (centres undefined) | inconclusive: 10.3 µM [activator, partial curve, poor fit] | 
25 | CC(NC(=O)CCC(=O)NCc1ccc(F)cc1)c1ccccc1 (centres undefined) |  | inactive: 42.8%
26 | Cc1ccc(CNC(=O)CCC2CCCN(Cc3cc4ccccc4o3)C2)o1 (centres undefined) | inconclusive: 32.6 µM [activator, single point] | 
27 | O=C(N/N=C/c1ccco1)c1cc(C2CC2)nc2ccccc12 | inconclusive: 29.1 µM [activator, single point] | 
28 | O=C(c1cc2c(ccc3ccccc32)o1)N1CCCCC1 | inconclusive: 29.1 µM [activator, single point] | 
29 | COc1ccc(C(=O)Nc2ccccc2C(=O)N2CCOCC2)cc1 |  | inactive: -12.2%
30 | Cn1cccc1/C=N/NC(=O)c1ccccn1 | inconclusive: 29.1 µM [activator, single point] | 
31 | COc1ccc(NC(=O)c2ccc3c(c2)CCN3S(=O)(=O)c2ccccc2)c(OC)c1 |  | inactive: 1.03%
32 | O=C(C=Cc1ccc(Cl)s1)c1ccc(Cl)s1 | inconclusive: 18.4 µM [activator, single point] | 
33 | COc1ccc(/C=C2\Sc3ccc(C(=O)NCc4cccnc4)cc3N(C)C2=O)cc1OC | inconclusive: 18.4 µM [activator, single point] | 
34 | Cc1ccc(NC(=O)CSc2nnnn2-c2ccc3c(c2)OCO3)cc1C | inconclusive: 29.1 µM [activator, single point] | 
35 | COc1ccc(N(C)S(=O)(=O)c2cccc(C(=O)Nc3nc(C)c(C(C)=O)s3)c2)cc1 |  | inactive: -15.7%
36 | CC(=O)NS(=O)(=O)c1ccc(NC(=O)c2cccc(S(=O)(=O)N3CCc4ccccc43)c2)cc1 |  | inactive: -5.45%
37 | O=C(Cc1ccccc1)Nc1ccc(NC(=O)c2ccccc2)c(Cl)c1 | inconclusive: 4.11 µM [activator, full curve, poor fit] | 
38 | CC(c1ccccc1)N1CCn2c(nc3cc(NC(=O)NC4CCCCC4)ccc32)C1 (centres undefined) | inconclusive: 15.8 µM [activator, partial curve, poor fit] | 
39 | COc1ccc(N2CCN(C(=O)CCCn3c(=S)[nH]c4cc5c(cc4c3=O)OCO5)CC2)cc1 | inconclusive: 29.1 µM [activator, single point] | 
40 | Cc1cc(C)c2nc(N(CCN(C)C)C(=O)c3ccc4ccccc4c3)sc2c1 |  | inactive: -27.7%
41 | CC(C)C[C@H](NC(=O)c1nc[nH]c1C(=O)N(C)Cc1ccccc1)C(=O)OCc1ccccc1 | inconclusive: 6.51 µM [activator, single point] | 
42 | c1ccc2[nH]c(SCCN3CCOCC3)nc2c1 | inconclusive: 25.9 µM [activator, single point] | 
43 | COc1ccc(-n2c(=O)c(CCC(=O)N(C)Cc3ccccc3C)nc3ccccc32)cc1 |  | inactive: -7.57%
44 | Cc1ccc(-n2c(C3CC3c3ccc(Cl)cc3)n[nH]c2=S)cc1 (centres undefined) | inconclusive: 10.3 µM [activator, partial curve, poor fit] | 

Part of the list above, as tab-separated lines.
Row	SMILES	Potency	re-replication activation
25	CC(NC(=O)CCC(=O)NCc1ccc(F)cc1)c1ccccc1 (centres undefined)		inactive: 42.8%
30	Cn1cccc1/C=N/NC(=O)c1ccccn1	inconclusive: 29.1 µM [activator, single point]	
